Results on two molecules are retold here after patent publication US20060222645A1 (LEXICON PHARMACEUTICALS, published 2006).

These are yes or no findings as the source states them, for the method shown. Some binding calls cover weakened binding; strength is not graded here.

This experiment addresses T1, N-terminal coiled-coil domain of mouse ANGPTL4 (mouse) (UniProt Q9Z1P8).
T1 sequence: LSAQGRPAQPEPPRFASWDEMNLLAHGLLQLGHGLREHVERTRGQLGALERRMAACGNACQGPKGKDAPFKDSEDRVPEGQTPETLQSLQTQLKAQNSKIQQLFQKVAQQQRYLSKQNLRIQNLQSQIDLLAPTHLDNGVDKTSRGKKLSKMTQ
Description: ELISA on isolated domain.

B1: monoclonal antibody 14D12 (antibody, V domains shown)
VH: EVKLVESGGGLVKPGGSLKLSCAASGFAFSRYDMSWVRQTPEKRLEWVATISTGGSYTYYPDSVKGRFTISRDNARNTLYLQMGSLRSEDTALYFCVRHEQSTVVPHYPLDYWGQGTSVTVSS
VL: DIVMTQSPATLSVTPGDRVSLSCRASQSIGDYLHWYQQKSHESPRLLIKYASQSISGIPSRFSGSGSGSDFTLSIDSVEPEDVGVYYCQNGHSFPFTFGSGTKLEIKR
With B1, the binding entry was “binds”.

B2: monoclonal antibody 15F2 (antibody, V domains shown)
VH: EVKLVESGGGLVKPGGSLKLSCAASGFAFSRYDMSWVRQTPEKRLEWVATISTDGSYTYYPDSVKGRFTISRDNARNTLYLQMGSLRSEDTALYFCVRHEQSTIVPHYPLDYWGQGTSVTVSS
VL: EIQMTQSPSSMSASLGDRITITCQATQDIVKNLNWYQQKPGKPPSFLIHYATELAEGVPSRFSGSGSGSDYSLTISNLESEDFADYYCLQSYDFPYTFGGGTKLEINR
In the case of B2, the binding entry was “binds”.
